Some of the results follow. Small differences around the control level are noise.
compound: CN[C@@H]1C[C@H]2O[C@@](C)([C@@H]1OC)n1c3ccccc3c3c4c(c5c6ccccc6n2c5c31)C(=O)NC4 [staurosporine]; test: log2 fold change of tryptic peptide abundance, ligand vs vehicle (limited proteolysis) (log2 ratio); higher = more trypsin-susceptible (destabilized); conditions: ligand concentration: 20 uM; sample: K562 cleared lysate; digestion: 4 min, 22 C (HT-PELSA RT4min, Orbitrap Astral)

Protein sequences, listed by entry. Tags and fused reporters are not part of them. Lines headed by an entry give the natural chain unless they say otherwise; changes in a name come on top.
UniProt Q15506: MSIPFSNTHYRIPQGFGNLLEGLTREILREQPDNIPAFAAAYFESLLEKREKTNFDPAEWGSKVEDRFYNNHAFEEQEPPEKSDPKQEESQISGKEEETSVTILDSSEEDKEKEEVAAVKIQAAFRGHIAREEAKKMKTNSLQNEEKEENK
UniProt Q494X3: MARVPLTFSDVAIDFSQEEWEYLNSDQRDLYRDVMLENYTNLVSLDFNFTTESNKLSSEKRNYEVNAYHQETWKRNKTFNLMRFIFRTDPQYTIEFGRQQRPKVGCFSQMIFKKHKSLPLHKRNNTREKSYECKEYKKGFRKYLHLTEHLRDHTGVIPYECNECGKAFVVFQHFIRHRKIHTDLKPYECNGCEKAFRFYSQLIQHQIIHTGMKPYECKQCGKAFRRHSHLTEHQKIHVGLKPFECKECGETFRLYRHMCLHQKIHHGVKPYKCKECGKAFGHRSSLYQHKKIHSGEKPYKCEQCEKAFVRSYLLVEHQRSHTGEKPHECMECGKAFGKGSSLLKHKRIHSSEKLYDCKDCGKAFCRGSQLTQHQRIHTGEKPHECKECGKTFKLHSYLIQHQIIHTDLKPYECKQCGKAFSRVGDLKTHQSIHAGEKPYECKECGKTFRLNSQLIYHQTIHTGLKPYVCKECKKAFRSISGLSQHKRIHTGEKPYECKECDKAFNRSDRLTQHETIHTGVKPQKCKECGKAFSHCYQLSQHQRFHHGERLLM
UniProt Q15329: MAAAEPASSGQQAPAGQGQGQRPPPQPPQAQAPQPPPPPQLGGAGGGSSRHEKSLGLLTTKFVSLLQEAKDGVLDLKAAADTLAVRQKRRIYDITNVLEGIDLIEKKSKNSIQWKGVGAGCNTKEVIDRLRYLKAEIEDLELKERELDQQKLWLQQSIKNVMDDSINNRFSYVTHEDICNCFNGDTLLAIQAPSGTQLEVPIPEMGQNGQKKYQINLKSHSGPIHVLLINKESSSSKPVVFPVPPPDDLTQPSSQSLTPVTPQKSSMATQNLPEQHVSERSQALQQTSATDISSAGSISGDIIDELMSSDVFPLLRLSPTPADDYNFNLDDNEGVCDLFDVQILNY
UniProt Q15361: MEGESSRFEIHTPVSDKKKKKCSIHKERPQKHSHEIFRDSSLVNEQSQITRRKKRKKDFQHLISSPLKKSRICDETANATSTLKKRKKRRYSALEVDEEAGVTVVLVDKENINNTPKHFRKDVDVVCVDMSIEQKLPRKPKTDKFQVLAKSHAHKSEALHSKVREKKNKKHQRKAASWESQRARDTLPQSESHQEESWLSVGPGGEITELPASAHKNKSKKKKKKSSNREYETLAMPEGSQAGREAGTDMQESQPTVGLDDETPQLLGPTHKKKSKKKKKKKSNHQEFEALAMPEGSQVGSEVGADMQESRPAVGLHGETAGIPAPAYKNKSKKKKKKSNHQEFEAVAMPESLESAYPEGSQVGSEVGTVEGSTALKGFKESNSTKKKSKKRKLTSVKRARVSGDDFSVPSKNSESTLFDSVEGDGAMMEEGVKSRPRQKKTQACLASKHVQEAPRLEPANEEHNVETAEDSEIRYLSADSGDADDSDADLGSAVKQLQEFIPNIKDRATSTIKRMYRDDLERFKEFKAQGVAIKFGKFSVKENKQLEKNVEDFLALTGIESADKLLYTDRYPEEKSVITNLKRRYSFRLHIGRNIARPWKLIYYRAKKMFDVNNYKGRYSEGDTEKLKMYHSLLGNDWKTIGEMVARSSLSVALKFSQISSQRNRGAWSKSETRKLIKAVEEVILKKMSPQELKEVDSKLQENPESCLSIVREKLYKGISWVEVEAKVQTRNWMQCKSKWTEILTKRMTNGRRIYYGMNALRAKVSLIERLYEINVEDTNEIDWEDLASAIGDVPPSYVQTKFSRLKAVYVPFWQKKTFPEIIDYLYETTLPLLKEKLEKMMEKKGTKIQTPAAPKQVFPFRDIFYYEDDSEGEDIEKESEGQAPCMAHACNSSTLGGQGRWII
UniProt Q3KP31: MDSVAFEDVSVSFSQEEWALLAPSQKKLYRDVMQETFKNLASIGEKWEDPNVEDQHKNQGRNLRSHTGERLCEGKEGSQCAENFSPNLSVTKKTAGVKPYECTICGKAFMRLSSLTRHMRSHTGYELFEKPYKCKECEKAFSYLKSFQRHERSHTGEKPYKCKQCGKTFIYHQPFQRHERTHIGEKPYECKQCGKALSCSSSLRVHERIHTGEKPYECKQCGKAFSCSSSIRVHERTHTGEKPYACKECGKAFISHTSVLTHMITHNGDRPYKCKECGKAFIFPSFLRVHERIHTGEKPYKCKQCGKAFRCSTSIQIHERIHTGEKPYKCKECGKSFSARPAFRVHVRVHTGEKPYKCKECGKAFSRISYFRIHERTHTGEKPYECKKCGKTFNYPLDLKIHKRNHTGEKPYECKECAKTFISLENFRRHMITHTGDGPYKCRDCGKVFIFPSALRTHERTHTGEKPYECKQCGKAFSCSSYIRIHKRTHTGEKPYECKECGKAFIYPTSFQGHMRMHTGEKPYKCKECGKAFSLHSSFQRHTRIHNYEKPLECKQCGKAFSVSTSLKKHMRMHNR
UniProt Q49A88: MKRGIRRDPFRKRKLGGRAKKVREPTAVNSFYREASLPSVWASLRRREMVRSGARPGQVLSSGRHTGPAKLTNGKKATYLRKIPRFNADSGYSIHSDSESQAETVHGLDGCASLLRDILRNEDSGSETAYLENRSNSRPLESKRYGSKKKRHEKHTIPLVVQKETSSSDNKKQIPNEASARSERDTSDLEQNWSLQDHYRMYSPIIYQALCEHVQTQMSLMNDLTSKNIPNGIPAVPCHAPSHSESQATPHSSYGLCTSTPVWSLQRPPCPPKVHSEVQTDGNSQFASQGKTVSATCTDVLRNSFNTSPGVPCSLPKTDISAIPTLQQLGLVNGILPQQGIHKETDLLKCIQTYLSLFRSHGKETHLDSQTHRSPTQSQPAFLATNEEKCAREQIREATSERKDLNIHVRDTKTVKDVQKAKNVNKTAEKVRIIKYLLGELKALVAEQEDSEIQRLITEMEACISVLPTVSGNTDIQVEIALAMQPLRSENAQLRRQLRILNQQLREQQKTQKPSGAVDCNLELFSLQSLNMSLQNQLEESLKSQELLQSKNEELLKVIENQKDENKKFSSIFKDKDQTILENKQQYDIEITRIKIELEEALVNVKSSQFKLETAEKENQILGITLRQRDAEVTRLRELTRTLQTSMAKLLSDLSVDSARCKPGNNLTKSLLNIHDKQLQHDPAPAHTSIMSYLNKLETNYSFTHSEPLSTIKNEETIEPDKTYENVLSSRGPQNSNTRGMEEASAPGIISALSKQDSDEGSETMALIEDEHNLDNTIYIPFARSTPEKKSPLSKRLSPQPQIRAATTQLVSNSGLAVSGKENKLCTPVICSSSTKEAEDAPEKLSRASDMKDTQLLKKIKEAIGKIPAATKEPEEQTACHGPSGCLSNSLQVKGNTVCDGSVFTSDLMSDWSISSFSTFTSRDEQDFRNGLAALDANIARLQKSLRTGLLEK
UniProt Q3SY69: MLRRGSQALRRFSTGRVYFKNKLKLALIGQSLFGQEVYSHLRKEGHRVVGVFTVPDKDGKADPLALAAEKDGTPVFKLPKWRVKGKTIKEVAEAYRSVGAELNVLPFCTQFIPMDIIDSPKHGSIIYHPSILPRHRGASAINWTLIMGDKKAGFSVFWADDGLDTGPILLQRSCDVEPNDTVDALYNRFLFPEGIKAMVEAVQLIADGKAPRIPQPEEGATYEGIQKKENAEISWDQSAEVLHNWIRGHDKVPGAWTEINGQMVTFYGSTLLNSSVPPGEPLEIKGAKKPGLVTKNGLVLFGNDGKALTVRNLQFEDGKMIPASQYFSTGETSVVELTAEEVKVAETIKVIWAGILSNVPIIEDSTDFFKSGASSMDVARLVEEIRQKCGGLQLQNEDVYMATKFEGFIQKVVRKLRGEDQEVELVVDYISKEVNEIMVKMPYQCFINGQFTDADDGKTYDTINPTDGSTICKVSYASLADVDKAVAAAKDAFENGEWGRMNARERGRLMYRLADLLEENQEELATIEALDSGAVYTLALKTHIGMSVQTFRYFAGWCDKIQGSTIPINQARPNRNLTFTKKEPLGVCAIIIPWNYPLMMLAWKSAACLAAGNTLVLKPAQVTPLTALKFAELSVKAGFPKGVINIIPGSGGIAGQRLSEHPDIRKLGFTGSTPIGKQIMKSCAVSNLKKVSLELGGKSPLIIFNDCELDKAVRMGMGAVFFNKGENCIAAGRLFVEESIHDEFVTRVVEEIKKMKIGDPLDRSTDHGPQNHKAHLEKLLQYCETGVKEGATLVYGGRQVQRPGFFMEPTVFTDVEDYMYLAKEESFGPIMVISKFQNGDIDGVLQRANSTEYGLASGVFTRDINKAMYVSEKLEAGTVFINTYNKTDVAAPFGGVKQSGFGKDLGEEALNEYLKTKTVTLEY
UniProt Q15633: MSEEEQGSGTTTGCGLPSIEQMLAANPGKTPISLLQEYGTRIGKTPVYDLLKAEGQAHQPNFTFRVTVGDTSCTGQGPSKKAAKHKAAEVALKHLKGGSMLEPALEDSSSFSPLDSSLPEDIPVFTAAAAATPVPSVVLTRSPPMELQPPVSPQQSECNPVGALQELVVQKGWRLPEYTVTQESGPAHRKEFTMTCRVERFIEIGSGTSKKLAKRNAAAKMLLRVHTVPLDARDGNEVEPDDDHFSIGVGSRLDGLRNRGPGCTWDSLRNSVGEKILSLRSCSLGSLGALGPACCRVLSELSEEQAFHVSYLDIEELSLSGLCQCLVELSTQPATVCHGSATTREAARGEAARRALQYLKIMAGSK
UniProt Q1RMZ1: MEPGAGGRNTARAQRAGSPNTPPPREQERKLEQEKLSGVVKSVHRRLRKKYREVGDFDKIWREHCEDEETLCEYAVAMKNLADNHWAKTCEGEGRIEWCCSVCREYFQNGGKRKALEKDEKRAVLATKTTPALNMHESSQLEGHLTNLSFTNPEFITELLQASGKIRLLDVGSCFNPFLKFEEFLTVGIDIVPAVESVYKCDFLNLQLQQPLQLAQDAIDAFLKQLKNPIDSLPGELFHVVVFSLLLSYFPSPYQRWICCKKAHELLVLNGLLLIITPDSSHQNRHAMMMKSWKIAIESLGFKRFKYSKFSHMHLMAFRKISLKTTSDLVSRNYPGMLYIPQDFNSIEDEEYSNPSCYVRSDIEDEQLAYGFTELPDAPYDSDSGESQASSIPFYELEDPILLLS
UniProt Q15131: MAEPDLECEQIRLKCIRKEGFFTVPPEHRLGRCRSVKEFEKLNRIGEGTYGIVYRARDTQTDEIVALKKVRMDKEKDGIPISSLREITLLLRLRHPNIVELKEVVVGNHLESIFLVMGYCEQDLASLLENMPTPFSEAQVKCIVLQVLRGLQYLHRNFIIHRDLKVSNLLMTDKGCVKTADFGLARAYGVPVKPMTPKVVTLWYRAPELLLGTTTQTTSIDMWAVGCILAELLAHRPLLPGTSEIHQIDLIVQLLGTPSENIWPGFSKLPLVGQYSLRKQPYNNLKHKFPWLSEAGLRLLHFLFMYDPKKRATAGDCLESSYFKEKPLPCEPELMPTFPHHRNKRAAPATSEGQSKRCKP
UniProt Q16890: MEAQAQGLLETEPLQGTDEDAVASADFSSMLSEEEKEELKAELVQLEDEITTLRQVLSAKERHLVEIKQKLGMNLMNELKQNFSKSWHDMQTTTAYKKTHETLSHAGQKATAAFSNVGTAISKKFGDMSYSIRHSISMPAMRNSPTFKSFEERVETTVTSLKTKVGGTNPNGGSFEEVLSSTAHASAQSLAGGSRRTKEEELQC
UniProt Q15404: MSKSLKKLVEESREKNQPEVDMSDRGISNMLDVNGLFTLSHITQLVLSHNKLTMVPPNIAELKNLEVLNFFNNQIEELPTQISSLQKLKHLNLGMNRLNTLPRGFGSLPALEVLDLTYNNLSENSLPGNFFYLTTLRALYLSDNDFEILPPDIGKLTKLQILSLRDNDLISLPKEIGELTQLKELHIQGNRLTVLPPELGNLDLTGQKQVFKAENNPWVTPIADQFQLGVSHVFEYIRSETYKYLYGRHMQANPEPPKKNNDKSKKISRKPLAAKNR
UniProt Q16527: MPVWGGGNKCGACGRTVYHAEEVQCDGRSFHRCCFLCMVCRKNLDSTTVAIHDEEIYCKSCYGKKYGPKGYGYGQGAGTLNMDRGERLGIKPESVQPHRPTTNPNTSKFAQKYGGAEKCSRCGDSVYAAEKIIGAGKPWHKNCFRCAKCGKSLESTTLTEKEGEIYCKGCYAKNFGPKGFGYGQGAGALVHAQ
UniProt Q16539, whole entry: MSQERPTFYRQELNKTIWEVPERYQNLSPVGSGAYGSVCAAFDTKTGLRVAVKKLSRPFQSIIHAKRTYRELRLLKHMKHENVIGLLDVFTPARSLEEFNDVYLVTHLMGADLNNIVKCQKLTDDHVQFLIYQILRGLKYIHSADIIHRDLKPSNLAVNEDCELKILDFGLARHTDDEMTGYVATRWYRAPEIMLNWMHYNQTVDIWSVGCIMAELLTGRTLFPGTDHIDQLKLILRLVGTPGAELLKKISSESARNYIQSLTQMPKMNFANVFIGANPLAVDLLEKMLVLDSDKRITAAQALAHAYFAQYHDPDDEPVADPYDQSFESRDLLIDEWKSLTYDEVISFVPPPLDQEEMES

Row | Target | log2 fold change
1 | SPA17 (peptide sequence: TNSLQNEEKEENK, peptide start residue: 139) (UniProt Q15506) | -0.161
2 | ZNHIT3 (peptide sequence: SLLLNPHLR, peptide start residue: 103) (UniProt Q15649) | 0.392
3 | UniProt Q494X3 (peptide sequence: GSQLTQHQR, peptide start residue: 375) | 0.446
4 | TGIF1 (peptide sequence: DWLYEHR, peptide start residue: 181) (UniProt Q15583) | 0.081
5 | CYTH1 (peptide sequence: LKDEIAEVANEIENLGSTEERK, peptide start residue: 37) (UniProt Q15438) | -0.513
6 | UniProt Q15329 (peptide sequence: IYDITNVLEGIDLIEKK, peptide start residue: 91) | 0.319
7 | TCEA2 (peptide sequence: DASEAPDPSR, peptide start residue: 102) (UniProt Q15560) | -0.454
8 | TTF1 (peptide sequence: VSGDDFSVPSK, peptide start residue: 402) (UniProt Q15361) | 0.18
9 | DPYSL2 (peptide sequence: GSPLVVISQGK, peptide start residue: 441) (UniProt Q16555) | -0.29
10 | UniProt Q3KP31 (peptide sequence: ALSCSSSLR, peptide start residue: 196) | -0.541
11 | MTERF2 (peptide sequence: IKDGHLANLNGSKK, peptide start residue: 344) (UniProt Q49AM1) | 0.869
12 | ZYX (peptide sequence: FGPVVAPKPK, peptide start residue: 26) (UniProt Q15942) | 0.129
13 | TATDN3 (peptide sequence: SAGRPTINLLQEQGAEK, peptide start residue: 150) (UniProt Q17R31) | 0.0147
14 | NFE2 (peptide sequence: RKLETIVQLER, peptide start residue: 286) (UniProt Q16621) | -0.43
15 | CDC37 (peptide sequence: KVAECQRK, peptide start residue: 60) (UniProt Q16543) | -1.55
16 | UniProt Q49A88 (peptide sequence: NGLAALDANIAR, peptide start residue: 930) | 0.488
17 | ALDH1L2 (peptide sequence: DAFENGEWGR, peptide start residue: 491) (UniProt Q3SY69) | -0.232
18 | TUBB8 (peptide sequence: AVLVDLEPGTMDSVR, peptide start residue: 63) (UniProt Q3ZCM7) | -0.126

Taken from above:
log2 fold change with TTF1 (peptide sequence: VSGDDFSVPSK, peptide start residue: 402) (UniProt Q15361) reads 0.18
log2 fold change with CDC37 (peptide sequence: KVAECQRK, peptide start residue: 60) (UniProt Q16543) reads -1.55
log2 fold change with TATDN3 (peptide sequence: SAGRPTINLLQEQGAEK, peptide start residue: 150) (UniProt Q17R31) reads 0.0147

Following part

Row | Target | log2 fold change
19 | MRPL23 (peptide sequence: NVVYPLYR, peptide start residue: 4) (UniProt Q16540) | 0.171
20 | TARBP2 (peptide sequence: EFTMTCR, peptide start residue: 191) (UniProt Q15633) | 0.597
21 | BMT2 (peptide sequence: IEWCCSVCR, peptide start residue: 96) (UniProt Q1RMZ1) | 0.578
22 | CDK10 (peptide sequence: DGIPISSLR, peptide start residue: 77) (UniProt Q15131) | -0.85
23 | UniProt Q15397 (peptide sequence: VIQCYIQYGNEEQRK, peptide start residue: 182) | -0.343
24 | TPD52L1 (peptide sequence: KTHETLSHAGQK, peptide start residue: 98) (UniProt Q16890) | 0.199
25 | UniProt Q2KHM9 (peptide sequence: VNSTTEANIHLK, peptide start residue: 698) | 0.499
26 | RSU1 (peptide sequence: EIGELTQLK, peptide start residue: 175) (UniProt Q15404) | -0.336
27 | CSRP2 (peptide sequence: LGIKPESVQPHRPTTNPNTSK, peptide start residue: 88) (UniProt Q16527) | -0.255
28 | CLPP (peptide sequence: ALPLIPIVVEQTGR, peptide start residue: 55) (UniProt Q16740) | -1.32
29 | PDIA6 (peptide sequence: HHSLGGQYGVQGFPTIK, peptide start residue: 86) (UniProt Q15084) | 0.332
30 | GUK1 (peptide sequence: RLLQEHSGIFGFSVSHTTR, peptide start residue: 23) (UniProt Q16774) | 0.519
31 | CHD9 (peptide sequence: ESNVGGIQQLSK, peptide start residue: 1338) (UniProt Q3L8U1) | 0.214
32 | CYP51A1 (peptide sequence: FAYVPFGAGR, peptide start residue: 443) (UniProt Q16850) | -0.277
33 | MAPK14 (peptide sequence: DLKPSNLAVNEDCELK, peptide start residue: 150) (UniProt Q16539) | -0.301
34 | SP6 (peptide sequence: AGGAVEPPGGK, peptide start residue: 353) (UniProt Q3SY56) | -0.223
35 | EML3 (peptide sequence: MYGGHGSHVTSVR, peptide start residue: 834) (UniProt Q32P44) | -0.221
36 | NFIL3 (peptide sequence: LIALGEENATLK, peptide start residue: 105) (UniProt Q16649) | -0.674

Reference: the supplement of paper PMC12819154, “High-throughput peptide-centric local stability assay extends protein–ligand identification to membrane proteins, tissues and bacteria” (Nature Structural & Molecular Biology, 2025)
